Measurements: PubChem BioAssay AID485314 (National Center for Advancing Translational Sciences (NCATS), 2010)
Where “and” joins values, the source holds several entries; their conditions need not be identical. Identical values can stand only once. Hit rate of the full screen: of about 340,000 compounds, about 4,500 (1.3%) were called active. Inconclusive results, whose numbers are uncertain, are shown with a selection of clear calls. Calls follow the shape of the dose curve; as a rule, active = well fitted inhibition curve with a large enough effect; inconclusive = small, poorly fitted or top-dose-only effect, or another doubt; inactive = no such curve, though single readings can be large or run the other way. Potencies of inconclusive entries are doubtful fits and often do not repeat.

target: DNA polymerase beta (Homo sapiens) (UniProt P06746); assay: qHTS Assay for Inhibitors of DNA Polymerase Beta; conditions: Pol beta primer extension/strand displacement, fluorescence kinetic; activity change, negative = inhibition: at 114 µM (top of the series)
Procedure, shortened: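 Kinetic readout of DNA synthesis with strand displacement by Pol beta. Compound and 10 nM enzyme sit 15 min at room temperature; 50 nM substrate starts the reaction, read immediately and at 10 min.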
% is scaled to controls: 0 for no effect and ±100 for the full control effect; potency is read from the fitted curve at half-maximal effect.

Row | Structure (SMILES) | Potency | activity change, negative = inhibition
1 | O=C1/C(=C\c2ccc(O)cc2)SC(=S)N1Cc1ccccc1 | inconclusive: 28.2 µM [inhibitor, single point] | 
2 | CCNC(=O)n1cc(-n2cncn2)c(-c2ccccc2)n1 | inconclusive: 39.8 µM [inhibitor, single point] | 
3 | Cn1c(-c2cnn(-c3ccccc3)c2N)n[nH]c1=S | inconclusive: 0.141 µM [inhibitor, full curve] | 
4 | COc1ccccc1N(CC(=O)NCCSc1ccccc1)S(=O)(=O)c1ccc(C)cc1 | inactive | 
5 | Cc1c(CCOC(=O)c2cc([N+](=O)[O-])ccc2Cl)sc[n+]1CCCCS(=O)(=O)[O-] | inconclusive: 89.1 µM [inhibitor, single point] | 
6 | C=CCOc1ccc(/C=C2\SC(=S)N(CCC(=O)O)C2=O)cc1 | inactive | 
7 | Cc1cccc(COc2ccc(-c3cc(C(F)(F)F)n4nc(C)cc4n3)cc2)c1 | inactive | 
8 | CCOC(=O)c1cnn(-c2cccc(Cl)c2)c1C1CCN(C(=O)OC(C)(C)C)CC1 | inconclusive: 0.199 µM [inhibitor, full curve, poor fit] | 
9 | CC1=NN(c2ccccc2)C(=O)C1N=Nc1ccc(N)cc1 (centres undefined) | active: 22.4 µM | 
10 | C/C(=N\OCc1nc2ccccc2c(=O)n1/N=C/c1cc(C)cc([N+](=O)[O-])c1O)c1ccccc1 | inactive | 
11 | CSc1ncc2c(n1)-c1ccccc1N(Cc1ccccc1C)S2(=O)=O | inactive | 
12 | COC1(C(F)(F)F)NC(=O)N(c2ccc(F)cc2)C1=O (centres undefined) | inactive | 
13 | COc1ccc(/C=N/n2cnnc2SCc2ccccc2)cc1 | inconclusive: 39.8 µM [inhibitor, single point] | 
14 | COc1ccc(CNc2nc(-c3ccccc3)nn2C(=O)c2ccccc2OC)cc1 | inconclusive: 8.91 µM [inhibitor, full curve, poor fit] | 
15 | COc1ccccc1NC(=O)C(=N\O)/C(C)=N/O | active: 44.7 µM | 
16 | COc1ccc(S(=O)(=O)NCc2ccco2)cc1N(C)S(=O)(=O)c1ccccc1 | inconclusive: 89.1 µM [inhibitor, single point] | 
17 | CN(Cc1ccccc1)C(=O)c1c[nH]c2ccc(S(=O)(=O)Nc3ccccc3F)cc2c1=O | active: 25.1 µM | 
18 | O=C(CCS(=O)(=O)c1ccccc1)Nc1ccccc1N1CCOCC1 | inconclusive: 89.1 µM [inhibitor, single point] | 
19 | COc1ccc(N(CC(=O)N2CCC(Cc3ccccc3)CC2)S(C)(=O)=O)cc1 | inconclusive: 63.1 µM [inhibitor, single point] | 
20 | COC(=O)C1(C)Cc2cc(OC(C)=O)c(OC(C)=O)cc2N1 (centres undefined) | inconclusive: 79.4 µM [inhibitor, single point] | 
21 | CC(CNC(=O)c1cc(COc2c(F)cccc2F)on1)Oc1cccnc1 (centres undefined) | inconclusive: 10 µM [inhibitor, partial curve] | 
22 | O=C(N/N=C/c1ccccn1)c1ccc(Cl)c(Cl)c1 | inconclusive: 56.2 µM [inhibitor, partial curve, poor fit] | 
23 | COc1ccc(CCNC(=O)c2cc(-c3ccccc3)on2)cc1OC | inconclusive: 22.4 µM [inhibitor, full curve, poor fit] | 

Row | Structure (SMILES) | Potency | activity change, negative = inhibition
24 | O=S(=O)(NCc1cn2ccccc2n1)c1cc(F)ccc1F | inconclusive: 3.98 µM [inhibitor, single point] | 
25 | O=S(=O)(c1ccc2c(c1)C(=NO)c1cc(S(=O)(=O)N3CCCCC3)ccc1-2)N1CCCCC1 | inconclusive: 100 µM [inhibitor, single point] | 
26 | O=C(CSc1ccccc1)N1CCN(S(=O)(=O)c2ccccc2F)CC1 | active: 44.7 µM | 
27 | CC1=C(C(N)=O)C(c2cccc(OCc3ccccc3)c2)n2nnnc2N1 (centres undefined) | inconclusive: 89.1 µM [inhibitor, single point] | 
28 | Cn1cccc1-c1nc2ccc(NC(=O)c3ccc([N+](=O)[O-])cc3)cc2[nH]1 | inconclusive: 1.41 µM [inhibitor, full curve, poor fit] | 
29 | Cc1ccc2[nH]c(=O)c3cc(C(=O)NC(C)C)sc3c2c1 | inconclusive: 89.1 µM [inhibitor, single point] | 
30 | NC(=NC(=O)c1ccccc1)N1CCN(C(c2ccccc2)c2ccccc2)CC1 |  | inconclusive: -34.2% [inhibitor]
31 | CCc1ccc(NC(=O)C2(c3cccs3)CCOCC2)cc1 | inactive | 
32 | Cc1cc(C)c(NC(=O)CN(c2ccccc2)S(=O)(=O)N(C)C)c(C)c1 | active: 28.2 µM and active: 35.5 µM | 
33 | O=S(=O)(c1ccccc1)n1nc(-c2ccc(Cl)cc2)nc1NCc1ccc(F)cc1 | inactive | 
34 | Cc1cccc(-c2nnc(-c3ccc(N)cc3)o2)c1 | inconclusive: 56.2 µM [inhibitor, partial curve] | 
35 | COc1cccc(-c2nc(SCC(=O)NCc3ccccc3)c3c(=O)n(C)c(=O)n(C)c3n2)c1 | inconclusive: 89.1 µM [inhibitor, single point] | 
36 | Cc1ccc(OCC(=O)Nc2nnc(S(=O)(=O)N3CCC(C)CC3)s2)cc1 |  | inconclusive: -101% [inhibitor]
37 | Cc1ccc(-n2c(C)cc(/C=C(\C#N)C(=O)NCC3CCCO3)c2C)cc1 (centres undefined) | inconclusive: 39.8 µM [inhibitor, single point] | 
38 | CCOC(=O)c1cnc2c(Cl)c(Cl)ccc2c1Nc1ccc(N(C)C)cc1 | inconclusive: 0.316 µM [inhibitor, full curve, poor fit] | 
39 | c1ccc2[nH]c3cc4ncnc4cc3nc2c1 | inconclusive: 79.4 µM [inhibitor, single point] | 
40 | O=C(Nc1ccc(F)cc1)c1ncn(-c2ccccc2)n1 | inactive | 
41 | CCS(=O)(=O)N1CCC(NC(C)=O)(c2ccccc2)CC1 | inconclusive: 2 µM [inhibitor, partial curve, poor fit] | 
42 | CCS(=O)(=O)c1c(S(=O)(=O)CC)c2cc(C(C)(C)C)ccn2c1C(=O)c1ccc(F)cc1 | inconclusive: 0.708 µM [inhibitor, single point] | 
43 | COc1ccccc1/C=C/C=N/n1c(-c2ccc(Cl)cc2)n[nH]c1=S | inconclusive: 89.1 µM [inhibitor, single point] | 
44 | O=C(CSc1n[nH]c(-c2ccccc2)n1)NC(=O)NCc1ccco1 | active: 35.5 µM | 
45 | CCCOc1ccc(/C=N/NC(=O)CSc2ccccn2)cc1OC | active: 79.4 µM | 
46 | CC(C)(C)NC(=O)CN(C(=O)CS(=O)CC(=O)Nc1ccc(F)cc1)c1ccc2c(c1)OCCO2 (centres undefined) | inconclusive: 89.1 µM [inhibitor, single point] | 

Row | Structure (SMILES) | Potency | activity change, negative = inhibition
47 | CCN(c1ccc(C)cc1C)S(=O)(=O)c1nnc(NC(=O)c2ccc(F)cc2)s1 | active: 17.8 µM | 
48 | COc1cc(/C=C/[N+](=O)[O-])ccc1OC(=O)c1cc2ccccc2oc1=O | inactive | 
49 | Nc1ncc(S(=O)(=O)N2CCN(c3ccccc3)CC2)cn1 | inconclusive: 25.1 µM [inhibitor, full curve, poor fit] | 
50 | O=C(c1ccco1)N1CCN(C(=O)c2cc3c(s2)-c2ccccc2OC3)CC1 | inconclusive: 39.8 µM [inhibitor, single point] | 
51 | COC(=O)CC1Oc2ccc(Cl)cc2-n2cc(-c3ccc(C)cc3)nc21 (centres undefined) | inactive | 
52 | COc1cc(NC(=O)CSc2ccc(-c3sc(C)nc3C)nn2)cc(OC)c1 | inconclusive: 17.8 µM [inhibitor, full curve, poor fit] | 
53 | O=C(CSc1cc(Cl)ccc1Cl)NC1CCCC1 | inactive | 
54 | Cn1cccc1Cc1nnc(SCC(=O)NCc2ccc3c(c2)OCO3)n1CCc1ccccc1 | inconclusive: 20 µM [inhibitor, full curve] | 
55 | CC(C)NC(=O)CN1C(=O)NC(CCc2ccccc2)C1=O (centres undefined) | inconclusive: 0.158 µM [inhibitor, full curve, poor fit] | 
56 | N=C1C(=O)OCC1c1ccccc1NC(=O)c1ccc(F)cc1 (centres undefined) | inconclusive: 3.16 µM [inhibitor, single point] | 
57 | CCN1C(=O)N/C(=C/c2ccc(C)o2)C1=O | inconclusive: 35.5 µM [inhibitor, partial curve] | 
58 | Cc1cc(-n2c(C)nc3ccccc3c2=O)ccc1NC(=O)c1cccc([N+](=O)[O-])c1C | inactive | 
59 | O=C(Nc1cccc(-c2nc3ccccc3s2)c1)c1cc(=O)c2ccccc2o1 | inconclusive: 3.55 µM [inhibitor, full curve] | 
60 | O=C(CSc1nnc(-c2ccc(S(=O)(=O)N3CCCC3)cc2)o1)NCc1ccco1 | active: 25.1 µM | 
61 | CCCn1cc(S(=O)(=O)CC(=O)Nc2ccc(OC)cc2OC)c2ccccc21 | inactive | 
62 | CC(C)CN1C(=O)/C(=C/c2ccco2)NC1=S | inconclusive: 63.1 µM [inhibitor, single point] | 
63 | CC1=Nc2ccc(C)cc2/C1=C/c1c(N)n2c(S(=O)(=O)C(C)C)nsc2nc1=O | inconclusive: 50.1 µM [inhibitor, partial curve] | 
64 | NC(=O)CSc1nnc(-c2cc(-c3ccc(Cl)cc3)nc3ccccc23)o1 | inactive | 
65 | Cc1cc(NC(=O)CN2CC3CC(C2)c2cccc(=O)n2C3)nc2c1c(=O)oc1ccccc12 (centres undefined) | inconclusive: 15.8 µM [inhibitor, full curve] | 
66 | COc1cc(/C=N/NC(N)=O)cc([N+](=O)[O-])c1O | inconclusive: 25.1 µM [inhibitor, full curve] | 
67 | Cc1nc(NC(=O)c2ccco2)sc1-c1csc(Nc2ccc(Cl)cc2Cl)n1 | inconclusive: 0.1 µM [inhibitor, full curve, poor fit] | 
68 | O=C(NN1C(=O)CSC1=S)C(=O)NN1C(=O)CSC1=S | active: 1.78 µM | 
69 | CCNc1nc2cccnc2s1 | inconclusive: 89.1 µM [inhibitor, single point] | 
